Assay results taken from the supplement of paper PMC10849652.
Some of the results follow.

The chains behind the UniProt entries cited, without tags or fusion partners. Where a name states a change or a piece, a line headed by the entry shows the natural chain unless it says otherwise.
UniProt Q5T1M5: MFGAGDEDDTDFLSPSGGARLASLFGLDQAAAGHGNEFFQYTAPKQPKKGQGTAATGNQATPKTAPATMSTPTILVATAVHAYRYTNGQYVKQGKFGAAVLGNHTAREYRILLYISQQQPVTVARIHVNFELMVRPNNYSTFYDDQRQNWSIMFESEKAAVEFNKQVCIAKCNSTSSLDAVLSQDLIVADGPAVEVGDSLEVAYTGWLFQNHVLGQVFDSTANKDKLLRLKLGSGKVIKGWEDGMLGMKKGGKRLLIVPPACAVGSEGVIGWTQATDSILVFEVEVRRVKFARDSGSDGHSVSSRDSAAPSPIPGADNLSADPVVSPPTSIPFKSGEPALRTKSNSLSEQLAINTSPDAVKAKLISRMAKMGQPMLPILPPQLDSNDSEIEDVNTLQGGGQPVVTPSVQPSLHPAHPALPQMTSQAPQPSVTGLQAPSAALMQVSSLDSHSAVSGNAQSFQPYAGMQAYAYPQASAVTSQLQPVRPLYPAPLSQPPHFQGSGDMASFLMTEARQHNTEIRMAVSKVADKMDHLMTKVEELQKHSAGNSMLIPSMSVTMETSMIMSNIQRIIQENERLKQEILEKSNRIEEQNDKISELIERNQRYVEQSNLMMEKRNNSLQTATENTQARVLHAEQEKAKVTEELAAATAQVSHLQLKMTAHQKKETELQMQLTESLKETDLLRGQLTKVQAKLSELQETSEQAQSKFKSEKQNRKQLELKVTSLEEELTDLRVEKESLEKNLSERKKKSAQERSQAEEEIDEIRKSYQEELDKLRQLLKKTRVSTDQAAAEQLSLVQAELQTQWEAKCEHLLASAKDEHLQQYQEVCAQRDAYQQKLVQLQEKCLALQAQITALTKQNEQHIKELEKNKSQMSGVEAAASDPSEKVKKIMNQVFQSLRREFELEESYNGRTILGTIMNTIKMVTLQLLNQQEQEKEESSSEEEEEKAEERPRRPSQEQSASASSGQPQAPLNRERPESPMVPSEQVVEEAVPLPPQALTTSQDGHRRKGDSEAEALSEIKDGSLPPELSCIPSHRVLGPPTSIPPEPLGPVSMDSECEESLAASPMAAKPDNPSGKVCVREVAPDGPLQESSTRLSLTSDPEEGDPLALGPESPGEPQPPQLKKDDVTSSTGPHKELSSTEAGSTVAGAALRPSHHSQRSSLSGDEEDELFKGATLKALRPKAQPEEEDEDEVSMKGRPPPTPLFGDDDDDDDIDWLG
UniProt Q9NVI1: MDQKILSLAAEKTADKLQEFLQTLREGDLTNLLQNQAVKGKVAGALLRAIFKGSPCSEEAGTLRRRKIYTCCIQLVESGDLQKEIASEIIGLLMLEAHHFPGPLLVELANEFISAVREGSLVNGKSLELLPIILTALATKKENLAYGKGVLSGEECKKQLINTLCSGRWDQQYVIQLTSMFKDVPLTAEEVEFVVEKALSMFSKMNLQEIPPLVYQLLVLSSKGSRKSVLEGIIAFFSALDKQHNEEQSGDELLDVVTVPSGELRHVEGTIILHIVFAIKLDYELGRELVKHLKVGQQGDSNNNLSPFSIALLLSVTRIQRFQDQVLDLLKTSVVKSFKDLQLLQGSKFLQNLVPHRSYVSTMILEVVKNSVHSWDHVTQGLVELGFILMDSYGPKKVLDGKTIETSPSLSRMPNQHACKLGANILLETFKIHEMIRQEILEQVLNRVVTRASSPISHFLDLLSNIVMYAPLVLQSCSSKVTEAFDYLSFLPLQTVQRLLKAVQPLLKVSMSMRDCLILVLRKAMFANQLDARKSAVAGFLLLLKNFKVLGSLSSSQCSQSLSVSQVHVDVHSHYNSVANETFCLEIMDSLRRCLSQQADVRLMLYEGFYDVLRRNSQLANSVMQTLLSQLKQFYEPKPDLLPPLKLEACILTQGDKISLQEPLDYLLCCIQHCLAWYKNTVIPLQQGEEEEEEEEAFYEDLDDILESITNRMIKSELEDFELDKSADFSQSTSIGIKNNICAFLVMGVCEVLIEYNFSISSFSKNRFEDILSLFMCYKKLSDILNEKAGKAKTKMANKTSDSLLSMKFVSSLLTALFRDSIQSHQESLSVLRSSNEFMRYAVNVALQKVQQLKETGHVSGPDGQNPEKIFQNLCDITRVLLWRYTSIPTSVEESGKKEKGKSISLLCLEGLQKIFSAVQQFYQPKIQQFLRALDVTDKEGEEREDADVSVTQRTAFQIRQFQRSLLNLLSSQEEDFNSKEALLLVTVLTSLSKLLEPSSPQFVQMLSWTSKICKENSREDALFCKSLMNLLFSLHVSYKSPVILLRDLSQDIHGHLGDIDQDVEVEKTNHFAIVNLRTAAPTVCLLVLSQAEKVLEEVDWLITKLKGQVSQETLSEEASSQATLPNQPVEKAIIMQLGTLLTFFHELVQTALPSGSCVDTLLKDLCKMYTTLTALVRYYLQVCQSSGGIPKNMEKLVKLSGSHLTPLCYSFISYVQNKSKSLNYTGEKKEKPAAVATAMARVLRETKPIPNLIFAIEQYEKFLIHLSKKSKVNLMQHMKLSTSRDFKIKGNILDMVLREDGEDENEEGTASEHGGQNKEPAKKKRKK
UniProt Q9NVK5: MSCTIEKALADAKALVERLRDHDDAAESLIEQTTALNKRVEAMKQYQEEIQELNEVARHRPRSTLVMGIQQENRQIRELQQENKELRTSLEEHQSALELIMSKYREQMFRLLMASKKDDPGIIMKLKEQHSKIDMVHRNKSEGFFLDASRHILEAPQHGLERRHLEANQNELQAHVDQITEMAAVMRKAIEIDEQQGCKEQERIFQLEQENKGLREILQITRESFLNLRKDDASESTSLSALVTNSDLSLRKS
UniProt P26885: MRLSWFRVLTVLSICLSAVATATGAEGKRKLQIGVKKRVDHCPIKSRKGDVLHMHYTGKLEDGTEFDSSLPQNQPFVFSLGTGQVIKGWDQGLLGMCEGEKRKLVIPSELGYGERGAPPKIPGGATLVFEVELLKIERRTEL
UniProt Q5XUX1: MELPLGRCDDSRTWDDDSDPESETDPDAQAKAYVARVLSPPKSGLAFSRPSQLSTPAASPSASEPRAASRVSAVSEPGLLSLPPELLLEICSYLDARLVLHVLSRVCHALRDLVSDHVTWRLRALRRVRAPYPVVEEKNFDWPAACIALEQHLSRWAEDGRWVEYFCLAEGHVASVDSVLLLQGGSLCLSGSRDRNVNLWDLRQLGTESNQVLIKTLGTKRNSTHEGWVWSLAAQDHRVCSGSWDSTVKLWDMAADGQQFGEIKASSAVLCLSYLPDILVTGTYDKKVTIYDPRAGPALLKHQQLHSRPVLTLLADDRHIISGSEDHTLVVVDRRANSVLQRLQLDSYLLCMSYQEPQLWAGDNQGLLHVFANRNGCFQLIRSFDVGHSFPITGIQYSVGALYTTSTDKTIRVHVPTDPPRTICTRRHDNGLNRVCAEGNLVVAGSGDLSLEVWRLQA
UniProt Q96CD0: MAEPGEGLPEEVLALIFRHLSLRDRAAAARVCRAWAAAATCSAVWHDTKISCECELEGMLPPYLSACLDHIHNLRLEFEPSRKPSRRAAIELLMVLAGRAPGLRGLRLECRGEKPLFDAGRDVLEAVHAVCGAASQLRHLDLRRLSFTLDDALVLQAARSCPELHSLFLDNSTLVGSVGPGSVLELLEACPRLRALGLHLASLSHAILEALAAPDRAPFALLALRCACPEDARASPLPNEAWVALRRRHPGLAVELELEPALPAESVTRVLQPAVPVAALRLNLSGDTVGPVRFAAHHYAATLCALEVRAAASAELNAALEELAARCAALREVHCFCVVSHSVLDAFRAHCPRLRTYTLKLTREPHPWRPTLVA
UniProt Q8N3X1: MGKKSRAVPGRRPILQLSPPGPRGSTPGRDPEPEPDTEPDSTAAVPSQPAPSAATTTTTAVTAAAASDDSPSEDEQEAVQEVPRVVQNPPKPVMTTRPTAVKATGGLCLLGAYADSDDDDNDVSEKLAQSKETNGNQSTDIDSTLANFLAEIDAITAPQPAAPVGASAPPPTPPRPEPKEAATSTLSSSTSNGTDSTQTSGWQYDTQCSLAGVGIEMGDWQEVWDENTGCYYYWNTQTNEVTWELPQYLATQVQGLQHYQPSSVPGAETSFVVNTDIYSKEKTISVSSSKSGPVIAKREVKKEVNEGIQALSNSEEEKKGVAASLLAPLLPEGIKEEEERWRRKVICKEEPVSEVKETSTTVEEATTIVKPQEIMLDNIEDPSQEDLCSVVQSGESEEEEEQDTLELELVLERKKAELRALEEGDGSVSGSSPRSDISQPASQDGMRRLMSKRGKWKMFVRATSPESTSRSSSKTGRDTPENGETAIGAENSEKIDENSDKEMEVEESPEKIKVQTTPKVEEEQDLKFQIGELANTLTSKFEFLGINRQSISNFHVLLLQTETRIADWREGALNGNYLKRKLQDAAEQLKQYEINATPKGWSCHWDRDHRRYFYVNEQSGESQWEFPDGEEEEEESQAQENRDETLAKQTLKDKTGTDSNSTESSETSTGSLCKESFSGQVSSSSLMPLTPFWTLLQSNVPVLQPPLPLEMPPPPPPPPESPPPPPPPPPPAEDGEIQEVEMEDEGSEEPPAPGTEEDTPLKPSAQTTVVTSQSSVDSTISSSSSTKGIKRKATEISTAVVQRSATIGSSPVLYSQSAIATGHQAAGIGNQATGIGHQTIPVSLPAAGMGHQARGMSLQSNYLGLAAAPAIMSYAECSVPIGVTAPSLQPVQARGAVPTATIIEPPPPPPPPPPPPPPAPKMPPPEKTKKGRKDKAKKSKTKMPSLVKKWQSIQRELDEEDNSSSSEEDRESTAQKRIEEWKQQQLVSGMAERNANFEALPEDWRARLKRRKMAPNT
UniProt Q52LJ0: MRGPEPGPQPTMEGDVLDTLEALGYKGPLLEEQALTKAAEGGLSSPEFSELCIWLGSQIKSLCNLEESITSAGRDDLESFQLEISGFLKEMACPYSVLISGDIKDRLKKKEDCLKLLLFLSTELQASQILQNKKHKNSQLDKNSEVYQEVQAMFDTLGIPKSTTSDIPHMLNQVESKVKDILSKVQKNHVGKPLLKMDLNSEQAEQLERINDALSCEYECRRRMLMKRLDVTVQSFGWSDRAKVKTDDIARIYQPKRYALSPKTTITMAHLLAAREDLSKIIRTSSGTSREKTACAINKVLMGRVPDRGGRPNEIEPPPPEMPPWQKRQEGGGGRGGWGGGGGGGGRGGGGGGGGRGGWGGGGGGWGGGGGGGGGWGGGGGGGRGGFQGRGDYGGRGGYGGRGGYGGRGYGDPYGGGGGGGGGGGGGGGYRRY
UniProt Q9NSD9: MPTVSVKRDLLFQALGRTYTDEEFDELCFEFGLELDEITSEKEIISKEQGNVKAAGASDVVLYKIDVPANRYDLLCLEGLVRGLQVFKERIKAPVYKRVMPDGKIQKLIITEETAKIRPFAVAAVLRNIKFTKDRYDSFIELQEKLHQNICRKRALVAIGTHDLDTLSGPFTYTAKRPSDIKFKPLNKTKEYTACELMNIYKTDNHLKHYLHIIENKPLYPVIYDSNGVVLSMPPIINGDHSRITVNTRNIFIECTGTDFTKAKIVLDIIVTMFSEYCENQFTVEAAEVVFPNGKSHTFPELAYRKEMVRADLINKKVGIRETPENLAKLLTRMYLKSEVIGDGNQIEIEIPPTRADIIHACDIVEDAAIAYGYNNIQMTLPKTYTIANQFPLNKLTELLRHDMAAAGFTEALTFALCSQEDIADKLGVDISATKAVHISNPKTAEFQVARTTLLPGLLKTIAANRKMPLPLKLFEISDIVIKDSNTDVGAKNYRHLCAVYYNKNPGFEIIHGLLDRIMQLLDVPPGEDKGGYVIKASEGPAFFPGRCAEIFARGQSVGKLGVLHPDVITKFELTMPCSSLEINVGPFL
UniProt Q9Y5Y0: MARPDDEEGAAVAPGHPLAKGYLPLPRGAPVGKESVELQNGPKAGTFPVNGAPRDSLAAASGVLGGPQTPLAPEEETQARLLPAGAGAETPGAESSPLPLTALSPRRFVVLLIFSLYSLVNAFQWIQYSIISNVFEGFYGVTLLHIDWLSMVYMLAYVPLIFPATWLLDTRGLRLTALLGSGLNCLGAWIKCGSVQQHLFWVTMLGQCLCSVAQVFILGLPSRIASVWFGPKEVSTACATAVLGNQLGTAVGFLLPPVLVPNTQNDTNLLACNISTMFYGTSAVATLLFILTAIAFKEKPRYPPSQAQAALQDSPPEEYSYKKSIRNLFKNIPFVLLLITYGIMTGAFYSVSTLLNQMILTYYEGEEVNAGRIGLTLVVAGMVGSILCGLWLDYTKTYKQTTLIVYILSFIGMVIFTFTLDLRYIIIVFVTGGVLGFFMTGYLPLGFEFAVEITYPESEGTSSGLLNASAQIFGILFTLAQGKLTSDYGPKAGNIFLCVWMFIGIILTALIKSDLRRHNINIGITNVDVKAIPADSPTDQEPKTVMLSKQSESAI

Columns and labels:
Assay in all cases: log2 fold change, soluble protein after heating vs DMSO (PISA); higher = thermal stabilisation; K562 lysate, 10 uM; active = over 0.2 and 3.5 SD of the protein, either way, in both replicates (recomputed)
vemurafenib = compound: CCCS(=O)(=O)Nc1ccc(F)c(C(=O)c2c[nH]c3ncc(-c4ccc(Cl)cc4)cc23)c1F [vemurafenib]
How it was run: (§1)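 To prepare the extract, K562 pellets were dounce-homogenised in PBS pH 7.4 with 1 mM MgCl2, giving crude material at 1 mg/mL protein. This was treated with 10 μM compound for 30 min, then heated in aliquots for 3 min over 48°C-58°C before pooling and addition of NP-40 to 0.5% at 4°C. Centrifugation at 21,000xg for 90 min left soluble protein in the supernatant, which TMTpro 16plex LC-MS/MS quantified with equalised channel sums. Results are log-two fold changes in thermal stability compared with solvent controls, from duplicates.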

[1] = compound: CCCS(=O)(=O)Nc1ccc(F)c(C(=O)c2c[nH]c3ncc(Cl)cc23)c1F
How it was run: as §1

barasertib = compound: CCN(CCCOc1ccc2c(Nc3cc(CC(=O)Nc4cccc(F)c4)[nH]n3)ncnc2c1)CCOP(=O)(O)O [barasertib]
How it was run: as §1

[2] = compound: CC[C@@H]1C(=O)N(C)c2cnc(Nc3ccc(C(=O)NC4CCN(C)CC4)cc3OC)nc2N1C1CCCC1
How it was run: as §1

volasertib = compound: CC[C@@H]1C(=O)N(C)c2cnc(Nc3ccc(C(=O)N[C@H]4CC[C@H](N5CCN(CC6CC6)CC5)CC4)cc3OC)nc2N1C(C)C [volasertib]
How it was run: as §1

[3] = compound: CCn1c(C(=O)N(C2CC2)C2CC2)cc2c3c(ncn3C)c(Nc3cc(C)n(C)n3)nc21
How it was run: as §1

[4] = compound: CCn1cc(-c2ccnc3[nH]c(-c4cccc(CN(C)C)c4)cc23)c(-c2ccc(NC(=O)N(C)C)cc2)n1
How it was run: as §1

[5] = compound: CN1CCC(CNc2ccc3ncc(-c4cccc(OC(F)(F)F)c4)n3n2)CC1
How it was run: as §1

saracatinib = compound: CN1CCN(CCOc2cc(OC3CCOCC3)c3c(Nc4c(Cl)ccc5c4OCO5)ncnc3c2)CC1 [saracatinib]
How it was run: as §1

sotrastaurin = compound: CN1CCN(c2nc(C3=C(c4c[nH]c5ccccc45)C(=O)NC3=O)c3ccccc3n2)CC1 [sotrastaurin]
How it was run: as §1

alvocidib = compound: CN1CC[C@H](c2c(O)cc(O)c3c(=O)cc(-c4ccccc4Cl)oc23)[C@H](O)C1 [alvocidib]
How it was run: as §1

Tubastatin A = compound: CN1CCc2c(c3ccccc3n2Cc2ccc(C(=O)NO)cc2)C1 [Tubastatin A]
How it was run: as §1

[6] = compound: CNC(=O)C1=CC=CC=C1NC2=NC(=NC=C2Cl)NC3=C(C=C(C=C3)N4CCOCC4)OC
How it was run: as §1

defactinib = compound: CNC(=O)c1ccc(Nc2ncc(C(F)(F)F)c(NCc3nccnc3N(C)S(C)(=O)=O)n2)cc1 [defactinib]
How it was run: as §1

[7] = compound: CNc1nc(-c2ccc3c(N)n[nH]c3c2)cc(N2C[C@@H](C(=O)NC3CCCCC3)CC[C@H]2C)n1
How it was run: as §1

encorafenib = compound: COC(=O)N[C@@H](C)CNc1nccc(-c2cn(C(C)C)nc2-c2cc(Cl)cc(NS(C)(=O)=O)c2F)n1 [encorafenib]
How it was run: as §1

[8] = compound: COC(=O)[C@H](CCSC)NC(=O)C1=C(C=C(C=C1)NC[C@H](CS)N)C2=CC=CC=C2
How it was run: as §1

alisertib = compound: COc1cc(Nc2ncc3c(n2)-c2ccc(Cl)cc2C(c2c(F)cccc2OC)=NC3)ccc1C(=O)O [alisertib]
How it was run: as §1

[9] = compound: COc1cc2nc(-c3cc(F)ccc3O)nc(N[C@@H]3CNC[C@H]3C(C)(C)O)c2cc1OC
How it was run: as §1

gefitinib = compound: COc1cc2ncnc(Nc3ccc(F)c(Cl)c3)c2cc1OCCCN1CCOCC1 [gefitinib]
How it was run: as §1

Measured: log2 fold change

FIP1L1 (UniProt Q6UN15)
inactive: vemurafenib -0.008 | [1] 0.036 | barasertib 0.043 | [2] 0.105 | volasertib 0 | [3] 0.024 | [4] 0.118 | [5] -0.054 | saracatinib 0.036 | sotrastaurin -0.051 | alvocidib -0.049 | Tubastatin A -0.081 | [6] 0.019 | defactinib -0.034 | [7] 0.023 | encorafenib 0.069 | [8] 0.001 | alisertib 0.023 | [9] 0.009 | gefitinib -0.002

FAM98A (UniProt Q8NCA5)
inactive: vemurafenib 0.063 | [1] 0.032 | barasertib -0.016 | [2] 0.045 | volasertib -0.029 | [3] -0.005 | [4] 0.088 | [5] -0.08 | saracatinib -0.028 | sotrastaurin 0.017 | alvocidib 0.042 | Tubastatin A -0.04 | [6] 0.028 | defactinib 0.01 | [7] 0.086 | encorafenib -0.004 | [8] 0.025 | alisertib -0.028 | [9] -0.014 | gefitinib 0.037

FKBP15 (UniProt Q5T1M5)
inactive: vemurafenib 0.014 | [1] 0.009 | barasertib 0.02 | [2] 0.021 | volasertib -0.011 | [3] -0.003 | [4] -0.015 | [5] 0.016 | saracatinib 0.003 | sotrastaurin -0.01 | alvocidib -0.014 | Tubastatin A 0 | [6] -0.021 | defactinib -0.011 | [7] 0.054 | encorafenib 0.017 | [8] -0.007 | alisertib 0.003 | [9] 0.059 | gefitinib 0.025

FAT3 isoform 1 (UniProt Q8TDW7)
inactive: vemurafenib 0.003 | [1] -0.005 | barasertib 0.024 | [2] 0.131 | volasertib -0.065 | [3] 0.119 | [4] 0.122 | [5] -0.162 | saracatinib 0.122 | sotrastaurin 0.028 | alvocidib 0.022 | Tubastatin A -0.053 | [6] -0.059 | defactinib -0.084 | [7] 0.012 | encorafenib -0.053 | [8] -0.02 | alisertib 0.025 | [9] -0.021 | gefitinib -0.01

FANCI (UniProt Q9NVI1)
inactive: vemurafenib 0.018 | [1] 0.021 | barasertib 0.045 | [2] -0.028 | volasertib -0.053 | [3] 0.031 | [4] 0.021 | [5] -0.119 | saracatinib 0.017 | sotrastaurin 0.02 | alvocidib 0.063 | Tubastatin A -0.097 | [6] 0.014 | defactinib 0.01 | [7] -0.036 | encorafenib 0.002 | [8] 0.052 | alisertib 0 | [9] 0.01 | gefitinib -0.002

FGFR1OP2 (UniProt Q9NVK5)
inactive: vemurafenib 0.038 | [1] -0.046 | barasertib 0 | [2] -0.078 | volasertib 0.069 | [3] -0.017 | [4] 0.002 | [5] 0 | saracatinib -0.004 | sotrastaurin 0.103 | alvocidib -0.03 | Tubastatin A 0.018 | [6] 0.029 | defactinib 0.029 | [7] -0.084 | encorafenib 0.041 | [8] -0.038 | alisertib 0.052 | [9] 0.023 | gefitinib -0.022

Quoted at random: two records from the list.
FKBP15 (UniProt Q5T1M5)
inactive: vemurafenib 0.014 | [1] 0.009 | barasertib 0.02 | [2] 0.021 | volasertib -0.011 | [3] -0.003 | [4] -0.015 | [5] 0.016 | saracatinib 0.003 | sotrastaurin -0.01 | alvocidib -0.014 | Tubastatin A 0 | [6] -0.021 | defactinib -0.011 | [7] 0.054 | encorafenib 0.017 | [8] -0.007 | alisertib 0.003 | [9] 0.059 | gefitinib 0.025

FGFR1OP2 (UniProt Q9NVK5)
inactive: vemurafenib 0.038 | [1] -0.046 | barasertib 0 | [2] -0.078 | volasertib 0.069 | [3] -0.017 | [4] 0.002 | [5] 0 | saracatinib -0.004 | sotrastaurin 0.103 | alvocidib -0.03 | Tubastatin A 0.018 | [6] 0.029 | defactinib 0.029 | [7] -0.084 | encorafenib 0.041 | [8] -0.038 | alisertib 0.052 | [9] 0.023 | gefitinib -0.022

Remaining list, next part

FKBP2 (UniProt P26885)
inactive: vemurafenib -0.008 | [1] 0.04 | barasertib -0.042 | [2] 0.015 | volasertib 0.021 | [3] -0.037 | [4] 0.292 | [5] -0.02 | saracatinib -0.064 | sotrastaurin 0.096 | alvocidib 0.035 | Tubastatin A 0.038 | [6] 0.012 | defactinib 0.018 | [7] 0.015 | encorafenib -0.015 | [8] 0.002 | alisertib -0.033 | [9] -0.018 | gefitinib 0.018

FBXW9 (UniProt Q5XUX1)
inactive: vemurafenib 0.084 | [1] 0.052 | barasertib 0.025 | [2] -0.025 | volasertib -0.019 | [3] -0.029 | [4] -0.006 | [5] -0.013 | saracatinib 0.057 | sotrastaurin 0.069 | alvocidib -0.002 | Tubastatin A 0.005 | [6] 0.001 | defactinib 0.017 | [7] 0.039 | encorafenib 0.012 | [8] -0.216 | alisertib 0.015 | [9] -0.015 | gefitinib 0.002

FBXL8 (UniProt Q96CD0)
inactive: vemurafenib 0.004 | [1] 0.025 | barasertib -0.093 | [2] 0.186 | volasertib -0.029 | [3] 0.032 | [4] -0.015 | [5] -0.005 | saracatinib 0.029 | sotrastaurin -0.016 | alvocidib 0.038 | Tubastatin A 0.008 | [6] 0.056 | defactinib -0.062 | [7] 0.065 | encorafenib 0.095 | [8] -0.04 | alisertib -0.055 | [9] -0.004 | gefitinib -0.029

FNBP4 isoform 2 (UniProt Q8N3X1)
inactive: vemurafenib 0.006 | [1] 0.003 | barasertib -0.045 | [2] 0.026 | volasertib 0.015 | [3] 0 | [4] -0.004 | [5] 0.013 | saracatinib -0.021 | sotrastaurin -0.019 | alvocidib -0.032 | Tubastatin A 0.006 | [6] -0.019 | defactinib 0.001 | [7] -0.025 | encorafenib 0.048 | [8] -0.082 | alisertib 0.014 | [9] 0.017 | gefitinib 0.038

FNTA (UniProt P49354)
inactive: vemurafenib -0.028 | [1] -0.009 | barasertib 0.014 | [2] 0.046 | volasertib 0.012 | [3] -0.01 | [4] 0.071 | [5] -0.057 | saracatinib 0.002 | sotrastaurin -0.064 | alvocidib 0 | Tubastatin A 0.05 | [6] -0.06 | defactinib -0.01 | [7] -0.025 | encorafenib 0 | [8] 0.136 | alisertib -0.006 | [9] -0.002 | gefitinib 0.002

FAM98B (UniProt Q52LJ0)
inactive: vemurafenib 0.013 | [1] -0.005 | barasertib 0.028 | [2] -0.006 | volasertib -0.047 | [3] 0.001 | [4] -0.031 | [5] 0.014 | saracatinib -0.025 | sotrastaurin 0.028 | alvocidib 0.012 | Tubastatin A -0.001 | [6] -0.015 | defactinib 0.038 | [7] -0.033 | encorafenib -0.03 | [8] -0.002 | alisertib -0.008 | [9] -0.007 | gefitinib -0.007

FARSB (UniProt Q9NSD9)
inactive: vemurafenib -0.009 | [1] 0.006 | barasertib 0.018 | [2] 0.003 | volasertib -0.024 | [3] 0.016 | [4] 0 | [5] -0.018 | saracatinib 0.022 | sotrastaurin 0.095 | alvocidib 0.003 | Tubastatin A -0.056 | [6] -0.012 | defactinib -0.014 | [7] -0.012 | encorafenib -0.029 | [8] 0.067 | alisertib 0.002 | [9] 0.005 | gefitinib -0.013

FN3KRP (UniProt Q9HA64)
inactive: vemurafenib -0.002 | [1] 0 | barasertib -0.032 | [2] 0.015 | volasertib 0.011 | [3] -0.003 | [4] -0.036 | [5] 0.036 | saracatinib 0.035 | sotrastaurin 0.002 | alvocidib 0.02 | Tubastatin A 0.046 | [6] -0.006 | defactinib 0.04 | [7] 0.012 | encorafenib -0.011 | [8] -0.063 | alisertib -0.061 | [9] 0.015 | gefitinib 0.02

FBXO5 (UniProt Q9UKT4)
inactive: vemurafenib 0.045 | [1] 0.069 | barasertib -0.039 | [2] 0.067 | volasertib -0.053 | [3] 0.066 | [4] 0.015 | [5] -0.147 | saracatinib 0.035 | sotrastaurin -0.009 | alvocidib -0.031 | Tubastatin A -0.092 | [6] -0.099 | defactinib -0.012 | [7] 0.051 | encorafenib 0.057 | [8] -0.032 | alisertib -0.024 | [9] -0.008 | gefitinib 0.011

FLVCR1 (UniProt Q9Y5Y0)
inactive: vemurafenib -0.019 | [1] 0.044 | barasertib 0.064 | [2] -0.027 | volasertib 0.01 | [3] -0.03 | [4] 0.007 | [5] 0.045 | saracatinib -0.056 | sotrastaurin 0.014 | alvocidib 0.012 | Tubastatin A 0.087 | [6] -0.094 | defactinib 0 | [7] -0.02 | encorafenib 0.017 | [8] 0.006 | alisertib -0.008 | [9] -0.027 | gefitinib 0.066
